These are yes or no findings as the source states them, for the method shown.
Target: His6-tagged catalytic subunit of protein phosphatase 1, PP1β 6-327 (UniProt P62140)
Assay: pull-down; His6-PP1 (75 μL of 5 μM) as bait on Ni-NTA resin with 100 μL of 1 μM A647-C1mC2 or A647-BSA; PBS pH 7.5, 500 mM NaCl, 0.01% tween-20, 40 mM imidazole, 0.5 mM MnCl2, 2 mM DTT; 45 min at RT; A647 signal of the bound fraction on SDS-PAGE; both purified

The chains behind the UniProt entries cited, without tags or fusion partners. Residues count along the entry.
UniProt P62140, residues 6-327: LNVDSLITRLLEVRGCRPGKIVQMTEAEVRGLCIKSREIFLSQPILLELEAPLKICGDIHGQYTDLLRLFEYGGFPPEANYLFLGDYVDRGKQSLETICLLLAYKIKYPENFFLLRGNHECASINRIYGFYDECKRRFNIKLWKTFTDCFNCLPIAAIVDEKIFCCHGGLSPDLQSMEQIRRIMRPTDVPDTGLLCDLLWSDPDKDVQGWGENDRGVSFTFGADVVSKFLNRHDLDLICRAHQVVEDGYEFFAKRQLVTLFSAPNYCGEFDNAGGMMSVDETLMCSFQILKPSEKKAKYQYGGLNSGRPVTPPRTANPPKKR
UniProt P02769, residues 25-607: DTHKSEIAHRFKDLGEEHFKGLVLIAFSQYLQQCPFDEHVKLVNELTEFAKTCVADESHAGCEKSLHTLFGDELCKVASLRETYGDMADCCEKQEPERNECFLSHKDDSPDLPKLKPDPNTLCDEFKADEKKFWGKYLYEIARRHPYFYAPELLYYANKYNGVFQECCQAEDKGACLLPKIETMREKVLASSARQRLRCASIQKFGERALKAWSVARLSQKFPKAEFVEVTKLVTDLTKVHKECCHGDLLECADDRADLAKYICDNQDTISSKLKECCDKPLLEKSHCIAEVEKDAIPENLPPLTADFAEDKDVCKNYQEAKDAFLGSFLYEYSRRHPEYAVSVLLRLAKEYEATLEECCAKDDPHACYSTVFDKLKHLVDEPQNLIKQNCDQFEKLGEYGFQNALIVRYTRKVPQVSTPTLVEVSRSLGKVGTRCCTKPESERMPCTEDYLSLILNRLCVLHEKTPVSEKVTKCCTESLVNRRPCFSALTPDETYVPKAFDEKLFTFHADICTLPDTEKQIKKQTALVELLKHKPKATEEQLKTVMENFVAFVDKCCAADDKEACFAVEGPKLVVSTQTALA

## Alexa647-labeled BSA (from UniProt P02769 25-607)
  binding: no binding (tested: 100 μL of 1 μM A647-BSA)
